Test results taken from PubChem BioAssay AID493014 (National Center for Advancing Translational Sciences (NCATS), 2011).
The whole screen tested about 340,000 compounds, of which about 170 (0.05%) were called active. Inconclusive results, whose numbers are uncertain, are shown with a selection of clear calls. The call rests on the fitted dose curve; in most records, active means well fitted inhibition curve with a large enough effect in the signal ratio, with a control signal flat (not every such curve was filed as active); inconclusive means small, poorly fitted or top-dose-only effect, or effect the other way, or a change in a side signal; inactive means flat fitted curve, though single readings scatter; the % refers to the signal ratio. A potency beside an inconclusive call is a rough fit, not a confirmed value.
Potency means the concentration at half of the fitted maximal effect.

Assay: qHTS Assay to Find Inhibitors of Chronic Active B-Cell Receptor Signaling;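 on activity change, negative = inhibition: plate controls were basal doxycycline-induced cells for no effect and cells given 10 µM MG132 for full effect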
Settings: ABC-DLBCL IkBa-CBG/CBR reporter, luminescence ratio (green luciferase fused to IkBa over red control in TMD8 lymphoma cells), 4 h; activity change, negative = inhibition: at 46.1 µM (top of the series) unless noted
Outline: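 Cell line TMD8 (human ABC DLBCL), stably expressing tet-inducible CBG68-IkBa fusion and CBR; IMDM/0.5% FBS; cpd up to 46 uM; dox induction, 4 h, 37C/5% CO2; dual luminescence; green/red ratio; MG132 control.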
With `O=C(Nc1ccc2c(c1)nc1n2CCOC1)c1ccccc1` the Potency was inconclusive: 35.5 µM [rising, single point]. With `Cc1ccc(N(CC(=O)NCCc2ccc(F)cc2)S(=O)(=O)c2ccc(Cl)c([N+](=O)[O-])c2)c(C)c1` the activity change, negative = inhibition was inconclusive: 25%. In the case of `O=C1CC(N2CCN(S(=O)(=O)c3ccccc3)CC2)C(=O)N1c1ccccc1` (stereo not drawn), the activity change, negative = inhibition is reported as inconclusive: -18.5%. With `O=C(CSc1nc2ccccc2c(=O)n1-c1ccccc1)N/N=C/C=C/c1ccccc1[N+](=O)[O-]` the activity change, negative = inhibition was inconclusive: 5.93%. With `CC1CCCC(NC(=O)C2CCCN2S(=O)(=O)c2cccc3nsnc23)C1C` (stereo not drawn) the activity change, negative = inhibition was “inactive”. In the case of `Cc1ccc(-c2nn(C)c(=O)c3ccccc23)cc1S(=O)(=O)NCCN(C)C`, the Potency is reported as inconclusive: 25.1 µM [falling, single point]. In the case of `CCS(=O)(=O)N1CCN(C(=O)c2ccco2)CC1`, the activity change, negative = inhibition is reported as “inactive”. With `CC1(C)NC(=O)N(CCCCOc2ccc(Br)cc2Cl)C1=O` the activity change, negative = inhibition was “inactive”. For `COc1ccc(OC)c(C(=O)CSc2nnc(Cc3cccs3)n2CCc2ccccc2)c1`, the Potency was inconclusive: 11.2 µM [falling, partial curve]. With `COCCN(CCOC)C(=O)c1cc2c(=O)n3ccccc3nc2s1` the activity change, negative = inhibition was inconclusive: -1.87%. With `Cc1cc(C(=O)CSc2nc(N)cc(=O)[nH]2)c(C)n1CCc1ccc(Cl)cc1` the activity change, negative = inhibition was inconclusive: 10.5%. With `O=C(CC1CCCCC1)NCc1ccccc1` the activity change, negative = inhibition was inconclusive: 8.47%. In the case of `CCOc1ccc(-c2nc(CSCC(=O)N3CCN(c4cccc(C(F)(F)F)c4)CC3)c(C)o2)cc1`, the activity change, negative = inhibition is reported as inconclusive: 1.26%. In the case of `C=CCN1C(=O)N/C(=C/c2ccc(N3CCOCC3)o2)C1=O`, the Potency is reported as inconclusive: 3.66 µM [falling, single point]. With `Cc1cc(C)nc(SCc2ccc(C(=O)N/N=C3\CCCC(=O)C3)cc2)n1` the Potency was inconclusive: 11.2 µM [falling, single point]. For `Cc1[nH]n(-c2ccccc2)c(=O)c1C(=O)c1ccc(Cl)cc1`, the activity change, negative = inhibition was inconclusive: -27.3%. In the case of `CCOC(=O)c1c(C)n(C)c2ccc(OC)c(NC(=O)CCN3CCC(Cc4ccccc4)CC3)c12`, the activity change, negative = inhibition is reported as “inactive”. With `COC(=O)Cn1c(O)c(N=NC(=O)c2ccc3c(c2)OCO3)c2ccccc21` the Potency was inconclusive: 11.2 µM [falling, partial curve]. For `c1ccc(-c2nc3c([nH]2)CCc2nonc2-3)cc1`, the activity change, negative = inhibition was inconclusive: 25.3%. With `Cc1ccc(S(=O)(=O)CCC(=O)OC(C)C(=O)NC2CCCCC2C)cc1` (stereo not drawn) the activity change, negative = inhibition was “inactive”. With `CCN(CC)CCN1C(=O)/C(=C\c2ccc(Cl)c([N+](=O)[O-])c2)SC1=Nc1ccc(OC)cc1` the activity change, negative = inhibition was inconclusive: 1.53%. For `O=C(c1cc(Br)c(Br)s1)N1CCN(C/C=C/c2ccccc2)CC1`, the activity change, negative = inhibition was inconclusive: 22.5%. With `CCC(C)CCN1C(N(C)C)=NC[C@@H]1Cc1ccccc1` (stereo partly drawn) the activity change, negative = inhibition was “inactive”. For `O=C(COC(=O)Cc1ccccc1F)Nc1ccc(Cl)cn1`, the Potency was inconclusive: 31.6 µM [rising, single point]. In the case of `COc1ccc(/C=N/NC(=S)SC)cc1OC`, the Potency is reported as inconclusive: 0.631 µM [falling, partial curve, poor fit]. For `O=C(COC(=O)CNC(=O)c1ccc([N+](=O)[O-])o1)Nc1ncc(Cl)cc1Cl`, the activity change, negative = inhibition was “inactive”. In the case of `CC1=C/C(=N\NC(=O)c2ccccc2)CC1`, the Potency is reported as inconclusive: 18.4 µM [falling, single point]. In the case of `Cc1csc(NC(=O)C2CC(=O)N(c3ccc(C)c(C)c3)C2)n1` (stereo not drawn), the activity change, negative = inhibition is reported as inconclusive: 1.85%. With `C[C@H]1CN=C(Nc2ccccc2)N1CCc1ccccc1` the activity change, negative = inhibition was “inactive”. For `C=CCNCCCCOc1ccc(Br)cc1C`, the activity change, negative = inhibition was “inactive”. With `O=C(NC(=S)NC1CC1)c1cccnc1` the activity change, negative = inhibition was “inactive”. With `CC(C)(C)c1ccc(C(=O)N/C(N)=N/c2nc3ccccc3o2)cc1` the activity change, negative = inhibition was inconclusive: 16.6%. For `O=C(NCCc1cccnc1)C1CCC(=O)N(Cc2ccc(Cl)cc2)C1` (stereo not drawn), the activity change, negative = inhibition was “inactive”. For `CC1(C)CC(=O)C(C2C3=C(CC(C)(C)CC3=O)Oc3ccccc32)=C(O)C1` (stereo not drawn), the Potency was inconclusive: 2.31 µM [rising, partial curve, poor fit]. For `CCN1CCN(C(=O)c2nn(-c3ccc(C)cc3)c(=O)c3c2c2ccccc2n3C)CC1`, the activity change, negative = inhibition was inconclusive: 5.15%. With `CCNc1nc(NC(C)CC)nc(ON=C(C)C)n1` (stereo not drawn) the activity change, negative = inhibition was “inactive”. For `CNC(=S)N1CCc2cc(OC)c(OC)cc2C1COc1ccc(F)cc1` (stereo not drawn), the Potency was inconclusive: 3.98 µM [falling, full curve, poor fit]. In the case of `Cc1nc(C)c(-c2csc(Nc3ccc(F)cc3)n2)s1`, the activity change, negative = inhibition is reported as inconclusive: -18.3%. In the case of `OC1CCCN(Cc2nc(Cc3ccccc3Cl)no2)C1` (stereo not drawn), the activity change, negative = inhibition is reported as inconclusive: -5.24%. For `CCCNS(=O)(=O)c1ccc(CCC(=O)Nc2cc(Cl)ccc2Oc2ccccc2)cc1`, the activity change, negative = inhibition was “inactive”. With `COc1ccc2c(CCNC(N)=S)c[nH]c2c1` the activity change, negative = inhibition was inconclusive: -0.123%. In the case of `CCOC(=O)c1ccc(Nc2cc(C)nc(C)c2C(=O)OCC)cc1`, the activity change, negative = inhibition is reported as “inactive”. With `Cc1ccc(-c2n[nH]c(=S)c3ccccc23)cc1S(=O)(=O)NCC1CCCO1` (stereo not drawn) the Potency was inconclusive: 28.2 µM [falling, single point]. In the case of `O=C(CSc1n[nH]c(=O)n1C1CC1)Nc1cc(Cl)ccc1Oc1ccccc1`, the activity change, negative = inhibition is reported as inconclusive: -21.3%. With `O=C(Cc1n[nH]c(=O)c2ccccc12)OCC(=O)c1ccccc1` the activity change, negative = inhibition was inconclusive: -0.381%. For `C=CCn1c(CNS(=O)(=O)c2ccc(Br)cc2)n[nH]c1=S`, the activity change, negative = inhibition was “inactive”. With `COc1ccc(C(=O)OCC(=O)NC(C)CCc2ccccc2)cc1` (stereo not drawn) the activity change, negative = inhibition was “inactive”. In the case of `NS(=O)(=O)c1ccc(NC(=O)CSc2n[nH]c(=O)n2C2CC2)cc1`, the activity change, negative = inhibition is reported as inconclusive: 3.66%. For `COc1ccc(N2CCN(C(=O)CN(c3cccc(OC)c3)S(=O)(=O)c3ccccc3)CC2)cc1`, the activity change, negative = inhibition was “inactive”. For `O=C(NCCN1CCN(C(=O)Nc2ccccc2)CC1)Nc1ccccc1`, the activity change, negative = inhibition was inconclusive: 12.7%. For `Cc1cc(NS(=O)(=O)c2ccc(NC(=O)c3cnc4scc(C)n4c3=O)cc2)nc(C)n1`, the activity change, negative = inhibition was “inactive”. With `CCOc1ccc(C(=O)N/N=C/c2c(C)[nH]c(=O)[nH]c2=O)cc1` the Potency was inconclusive: 17.8 µM [falling, partial curve]. With `O=C(Cc1n[nH]c(=O)c2ccccc12)OCC(=O)N(Cc1ccccc1)Cc1ccccc1` the Potency was inconclusive: 35.5 µM [falling, partial curve, poor fit]. With `O=C(N/N=C/c1cccc(F)c1)NC1CCCCC1` the Potency was inconclusive: 29.1 µM [falling, single point]. With `CCc1cccc(C)c1NC(=O)C1CCCN1C(=O)NCc1ccccc1` (stereo not drawn) the activity change, negative = inhibition was inconclusive: 2.56%. With `CC(C)(C)SCCNS(=O)(=O)c1ccccc1` the activity change, negative = inhibition was inconclusive: -0.183%. In the case of `O=C(Cc1ccccc1)NCC(=O)OCC(=O)c1ccc(Cl)cc1`, the activity change, negative = inhibition is reported as “inactive”. In the case of `COc1ccc(C2=NS(=O)(=O)N(C)C(C(=O)Nc3cc(C)ccc3O)=C2)cc1OC`, the activity change, negative = inhibition is reported as inconclusive: 14.1%. With `CCCCCCn1c(C(C)O)nc2ccccc21` (stereo not drawn) the activity change, negative = inhibition was inconclusive: 5.08%. With `CC(=O)Nc1ccc(S(=O)(=O)c2cc(O)ccc2O)cc1` the activity change, negative = inhibition was inconclusive: 5.34%. With `CC(/C=C/c1ccccc1)=N/NC(=O)c1cccc(Br)c1` the Potency was inconclusive: 17.8 µM [falling, single point]. With `C=CCc1ccccc1OCCCCN1CCCC1` the activity change, negative = inhibition was inconclusive: -0.616%. For `COc1ccc(NC(=S)NCc2ccc3c(c2)cc(C)n3C)cc1`, the activity change, negative = inhibition was inconclusive: -0.0143%. With `CCOc1ccccc1NC(=O)C1CCCN(C(=O)NCc2ccccc2)C1` (stereo not drawn) the activity change, negative = inhibition was inconclusive: 2.97%. With `C=CCc1ccc(OCCCCNC(C)CC)c(OC)c1` (stereo not drawn) the activity change, negative = inhibition was inconclusive: -5.55%. In the case of `COc1ccc(-c2nn(-c3ccccc3)cc2CN(C)CCn2ccnc2C)c(F)c1`, the activity change, negative = inhibition is reported as “inactive”. With `COc1ccccc1N1CCN(C(=O)c2sc3ncnc(N4CCN(c5ccccn5)CC4)c3c2C)CC1` the activity change, negative = inhibition was inconclusive: -9.72%. For `O=C(Nc1ccc2nc(-c3ccc4nc[nH]c4c3)[nH]c2c1)c1cccs1`, the activity change, negative = inhibition was “inactive”. In the case of `CCCSc1ncc(Cl)c(C(=O)Nc2ccc(S(=O)(=O)Nc3ncccn3)cc2)n1`, the activity change, negative = inhibition is reported as “inactive”. In the case of `CN(C)c1ccc(/C=C/c2ccc3ccccc3[n+]2C)cc1`, the Potency is reported as inconclusive: 11.6 µM [rising, partial curve, poor fit]. With `COc1cccc(NC(=O)Cn2c3ccc(F)cc3c3nc4n(c(=O)c32)CCS4)c1` the activity change, negative = inhibition was inconclusive: 2.5%. In the case of `COCCn1c(SCC(=O)Nc2ncc(C)s2)nc2sc3c(c2c1=O)CCC3`, the activity change, negative = inhibition is reported as inconclusive: 15.4%. For `Clc1ccc(CSCCc2ccncc2)cc1`, the activity change, negative = inhibition was inconclusive: 18.4%. With `O=C(CSc1ncnc2sc3c(c12)CCC3)N1CCOCC1` the activity change, negative = inhibition was inconclusive: 7.18%. With `O=[N+]([O-])c1cc(S(=O)(=O)Nc2cccc(C(F)(F)F)c2)ccc1-n1nnc2ccccc21` the activity change, negative = inhibition was inconclusive: 1%. In the case of `O=C1c2cccc3c(N4CCCCC4)ccc(c23)C(=O)N1c1ccc(O)cc1`, the activity change, negative = inhibition is reported as inconclusive: 3.2%. For `C[C@@H]1[C@H](O)C[C@@]23COC(=O)C2=CCC[C@@H]3[C@@]1(C)CC/C(=C/CO)CO`, the activity change, negative = inhibition was “inactive”. In the case of `O=C(COC(=O)c1cc(-c2cccc3ccccc23)nc2ccccc12)NC1CCS(=O)(=O)C1` (stereo not drawn), the activity change, negative = inhibition is reported as “inactive”. In the case of `COc1ccc(C(CC(=O)Nc2cc(OC)cc(OC)c2)n2cccc2)cc1` (stereo not drawn), the Potency is reported as inconclusive: 20.6 µM [falling, partial curve, poor fit]. For `O=C(NC1CCCCCC1)c1ccc(N2CCCC2=O)cc1`, the Potency was inconclusive: 22.4 µM [falling, single point]. For `CCCCNC(=O)c1cccc2c(=O)c(C)c(-c3ccccc3)oc12`, the activity change, negative = inhibition was “inactive”. In the case of `COc1cccc2c1OC1(C)CC2/C(=C(\C)O)C(=O)N1` (stereo not drawn), the activity change, negative = inhibition is reported as inconclusive: -27.9%. With `COc1ccc2[nH]c(C)c(CCNc3ccc(C(F)(F)F)cc3[N+](=O)[O-])c2c1` the Potency was inconclusive: 5.8 µM [rising, full curve, poor fit].
